Data from patent US20150173847A1, “IMAGING MARKER AND UTILIZATION THEREOF” (priority 2012, published 2015).

How the values were obtained:
[1] = PET transmission imaging (microPET, 68Ga/Ge point source) of metal compound aqueous solutions; PET-CNR with reference to water; conditions: PET transmission image, aqueous solution at the concentration of maximum MRI contrast
[2] = CT imaging (Inveon animal CT) of representative metal compound aqueous solutions; CT-CNR
[3] = MRI imaging (MPRAGE, 3-tesla) of metal compound aqueous solutions in tubes; MRI-CNR with reference to water
[4] = aqueous solution that exhibited maximum MRI contrast
[5] = representative aqueous solutions of Table 1
[6] = concentration at which the aqueous solution exhibited maximum MRI contrast
[7] = maximum contrast ratio of the aqueous solution at multiple levels of concentration, MPRAGE, 3-tesla, 22° C., reference to water

SMILES | PET CNR [1] | CT CNR (×10^2) [2, 4] | CT values compared with water [2, 5] | Metal concentration [3, 6] [mM] | MRI CNRmax [3, 7] | CT CNR (×10^2) [2] | CT values compared with water [2] | MRI CNRmax [3] | Metal concentration [3] [mM] | PET CNR ([1]; listed as SPT) | CT image contrast ratios [2, 5]
CNC[C@H](O)[C@@H](O)[C@H](O)[C@H](O)CO.CNC[C@H](O)[C@@H](O)[C@H](O)[C@H](O)CO.O=C([O-])CN(CCN(CC(=O)[O-])CC(=O)O)CCN(CC(=O)[O-])CC(=O)O.[Gd+3] [Gd (Gd-DTPA), meglumine gadopentetate] | −0.66 | −0.6 ×10^2 | about the same CT values as that generated by water | 1.0 | 49 |  |  |  |  |  | 
O=S(=O)([O-])[O-].[Cu+2] [Cu (CuSO4), Copper sulfate] |  |  |  |  |  | −0.5 ×10^2 | about the same CT values as that generated by water | 90 | 10 |  | 
O.[Na+].[Na+].[Na+].[Na+].[Na+].[Na+].[O]=[W](=[O])([O-])[O-].[O]=[W](=[O])([O-])[O-].[O]=[W](=[O])([O-])[O-].[O]=[W](=[O])=[O].[O]=[W](=[O])=[O].[O]=[W](=[O])=[O].[O]=[W](=[O])=[O].[O]=[W](=[O])=[O].[O]=[W](=[O])=[O].[O]=[W](=[O])=[O].[O]=[W](=[O])=[O].[O]=[W](=[O])=[O] [W (SPT), Sodium polytungstate] | 40.3 | 17 ×10^2 |  | 10000 | 31 |  |  |  |  | 21 | 17×10^2

Where two headings read alike, the source gives them in different places.
